Measurements reported in PubChem BioAssay AID1224828 (NIAID, 2016).
This is one part, drawn at random, of about 17,000 reagents. Over the whole deposit, 762 (4.5%) got an active call. 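Active calls include both raised and lowered p65 entry, mostly lowered; wells with fewer than 50 cells lack a z-score.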 Raw values are not corrected between plates. A reagent listed more than once was tested more than once; the source does not tell the runs apart.

- Assay: 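Find genes required for NF-kappaB p65 moving into the nucleus after LPS in mouse macrophages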 (primary screen)
- Cell system: mouse RAW264.7 G9 macrophage reporter cells (GFP-p65, Tnf promoter-mCherry)
- Reagents: siRNA pool against mouse genes, 100 nM
- Duration: 2 days siRNA transfection, then 40 min LPS before fixation
- Challenge: LPS (Salmonella minnesota R595) at 10 ng/ml
- Measured: 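Microscopy ratio of nuclear to perinuclear-ring GFP-p65 signal, scaled to the plate median; gene score is the average of two replicate robust z-scores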
- Reading the numbers: p65 translocation robust z-score: higher = more nuclear NF-kappaB p65 after LPS than the plate median; nuclear/cytoplasmic p65 ratio: higher = more nuclear NF-kappaB p65
- Call rule: 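Active if robust z is above 3.3 (negative regulators) or below -1.56, the Tlr4 control median (positive regulators); activity score 50 or more; control wells not called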
- Calls: active = hit (p65 shift raised or lowered); inactive = no clear change

gene | p65 translocation robust z-score | nuclear/cytoplasmic p65 ratio, rep 1 | nuclear/cytoplasmic p65 ratio, rep 2 | low cell count flag | Call
Vapa (vesicle-associated membrane protein, associated protein A) | -0.14 | 1.46 | 1.21 | enough cells to score | inactive
Il6 (interleukin 6) | -0.26 | 1.42 | 1.37 | enough cells to score | inactive
Dnajc27 (DnaJ heat shock protein family (Hsp40) member C27) | -1.22 | 1.43 | 1.44 | enough cells to score | inactive
Kcnd3 | 0.35 | 1.55 | 1.4 | enough cells to score | inactive
Qrfp (pyroglutamylated RFamide peptide) | 0.51 | 1.5 | 1.3 | enough cells to score | inactive
Apol11b (apolipoprotein L 11b) | 1.42 | 1.98 | 1.67 | enough cells to score | inactive
Rab5b (RAB5B, member RAS oncogene family) | 2.32 | 1.79 | 1.89 | enough cells to score | inactive
Rbm3 (RNA binding motif (RNP1, RRM) protein 3) | 0.29 | 1.49 | 1.23 | enough cells to score | inactive
Scgb1a1 (secretoglobin, family 1A, member 1) | 2.16 | 1.43 | 1.89 | enough cells to score | inactive
Ifrd1 (interferon-related developmental regulator 1) | 0.07 | 1.41 | 1.41 | enough cells to score | inactive
Vmn1r172 (vomeronasal 1 receptor 172) | – | 1.18 | 1.3 | fewer than 50 cells per well; well left out of scoring | inactive
Mif4gd (MIF4G domain containing) | – | 1.4 | 1.1 | fewer than 50 cells per well; well left out of scoring | inactive
Rag1 (recombination activating 1) | 0.1 | 1.61 | 1.46 | enough cells to score | inactive
Piezo2 (piezo-type mechanosensitive ion channel component 2) | 0.71 | 1.5 | 1.67 | enough cells to score | inactive
Trap1a (tumor rejection antigen P1A) | – | 1.58 | 1.18 | fewer than 50 cells per well; well left out of scoring | inactive
Fam219b (family with sequence similarity 219, member B) | 1.33 | 1.53 | 1.56 | enough cells to score | inactive
Or52ae7 (olfactory receptor family 52 subfamily AE member 7) | 1.26 | 1.65 | 1.38 | enough cells to score | inactive
Ttc17 (tetratricopeptide repeat domain 17) | – | 1.43 | 1.5 | fewer than 50 cells per well; well left out of scoring | inactive
Lao1 (L-amino acid oxidase 1) | -0.26 | 1.42 | 1.48 | enough cells to score | inactive
Dnajb7 (DnaJ heat shock protein family (Hsp40) member B7) | 0.09 | 1.46 | 1.39 | enough cells to score | inactive
Samhd1 (SAM domain and HD domain, 1) | – | 1.51 | 1.22 | fewer than 50 cells per well; well left out of scoring | inactive
Sf3b1 (splicing factor 3b, subunit 1) | – | 1.2 | 1.03 | fewer than 50 cells per well; well left out of scoring | inactive
Gng12 (guanine nucleotide binding protein (G protein), gamma 12) | -0.67 | 1.47 | 1.43 | enough cells to score | inactive
Mpdu1 (mannose-P-dolichol utilization defect 1) | -0.38 | 1.81 | 1.46 | enough cells to score | inactive
Il9r (interleukin 9 receptor) | 0.71 | 1.59 | 1.45 | enough cells to score | inactive
Mepce (methylphosphate capping enzyme) | -0.74 | 1.41 | 1.49 | enough cells to score | inactive
Card19 (caspase recruitment domain family, member 19) | 0.6 | 1.57 | 1.58 | enough cells to score | inactive
Nelfcd (negative elongation factor complex member C/D, Th1l) | -1.46 | 1.18 | 1.04 | enough cells to score | inactive
Arid1a (AT-rich interaction domain 1A) | -0.01 | 1.67 | 1.57 | enough cells to score | inactive
D130079A08Rik (RIKEN cDNA D130079A08 gene) | 0.6 | 1.72 | 1.82 | enough cells to score | inactive
Tasor2 (transcription activation suppressor family member 2) | 1.87 | 1.78 | 2.16 | enough cells to score | inactive
Tcf20 (transcription factor 20) | -0.37 | 1.41 | 1.52 | enough cells to score | inactive

8 consecutive reagents already listed:
gene | p65 translocation robust z-score | nuclear/cytoplasmic p65 ratio, rep 1 | nuclear/cytoplasmic p65 ratio, rep 2 | low cell count flag | Call
Apol11b (apolipoprotein L 11b) | 1.42 | 1.98 | 1.67 | enough cells to score | inactive
Rab5b (RAB5B, member RAS oncogene family) | 2.32 | 1.79 | 1.89 | enough cells to score | inactive
Rbm3 (RNA binding motif (RNP1, RRM) protein 3) | 0.29 | 1.49 | 1.23 | enough cells to score | inactive
Scgb1a1 (secretoglobin, family 1A, member 1) | 2.16 | 1.43 | 1.89 | enough cells to score | inactive
Ifrd1 (interferon-related developmental regulator 1) | 0.07 | 1.41 | 1.41 | enough cells to score | inactive
Vmn1r172 (vomeronasal 1 receptor 172) | – | 1.18 | 1.3 | fewer than 50 cells per well; well left out of scoring | inactive
Mif4gd (MIF4G domain containing) | – | 1.4 | 1.1 | fewer than 50 cells per well; well left out of scoring | inactive
Rag1 (recombination activating 1) | 0.1 | 1.61 | 1.46 | enough cells to score | inactive

Continued:
gene | p65 translocation robust z-score | nuclear/cytoplasmic p65 ratio, rep 1 | nuclear/cytoplasmic p65 ratio, rep 2 | low cell count flag | Call
Stab1 (stabilin 1) | 0.08 | 1.4 | 1.26 | enough cells to score | inactive
Fyb1 (FYN binding protein 1) | 0.05 | 1.8 | 1.31 | enough cells to score | inactive
4930555G01Rik (RIKEN cDNA 4930555G01 gene) | – | 1.15 | 1.38 | fewer than 50 cells per well; well left out of scoring | inactive
Ttll8 (tubulin tyrosine ligase-like family, member 8) | – | 1.83 | 1.69 | fewer than 50 cells per well; well left out of scoring | inactive
Rps27 (ribosomal protein S27) | -1.26 | 1.19 | 1.13 | enough cells to score | inactive
Slc5a4b | 1.87 | 1.65 | 1.47 | enough cells to score | inactive
4930465K10Rik (RIKEN cDNA 4930465K10 gene) | – | 1.51 | 1.29 | fewer than 50 cells per well; well left out of scoring | inactive
Exoc3 (exocyst complex component 3) | 0.45 | 1.47 | 1.3 | enough cells to score | inactive
Cd22 (CD22 antigen) | 1.02 | 1.51 | 1.51 | enough cells to score | inactive
Hgf (hepatocyte growth factor) | 0.88 | 1.52 | 1.52 | enough cells to score | inactive
Mrgprx2 (MAS-related GPR, member X2) | 2.46 | 1.74 | 2.05 | enough cells to score | inactive
Zfp763 (zinc finger protein 763) | 0.52 | 1.66 | 1.72 | enough cells to score | inactive
Rdh10 (retinol dehydrogenase 10 (all-trans)) | -1.01 | 1.28 | 1.11 | enough cells to score | inactive
Smim11 (small integral membrane protein 11) | – | 1.9 | 1.6 | fewer than 50 cells per well; well left out of scoring | inactive
Hbp1 (high mobility group box transcription factor 1) | 3.44 | 2.47 | 1.75 | enough cells to score | active
Foxj1 (forkhead box J1) | -0.95 | 1.33 | 1.23 | enough cells to score | inactive
Gp9 (glycoprotein 9 platelet) | 1.82 | 1.74 | 1.54 | enough cells to score | inactive
Mga (MAX gene associated) | -0.91 | 1.55 | 1.44 | enough cells to score | inactive
Ccdc97 (coiled-coil domain containing 97) | – | 1.4 | 1.22 | fewer than 50 cells per well; well left out of scoring | inactive
Tbrg1 (transforming growth factor beta regulated gene 1) | – | 1.4 | 1.11 | fewer than 50 cells per well; well left out of scoring | inactive
Gnai3 (G protein subunit alpha i3) | 0.52 | 1.54 | 1.7 | enough cells to score | inactive
Pacrgl (PARK2 co-regulated-like) | – | 1.57 | 1.57 | fewer than 50 cells per well; well left out of scoring | inactive
Hexb (hexosaminidase B) | -1.54 | 1.21 | 1.2 | enough cells to score | inactive
Itga2 (integrin alpha 2) | -0.12 | 1.51 | 1.32 | enough cells to score | inactive
Dnaaf6 (dynein axonemal assembly factor 6) | -0.48 | 1.43 | 1.28 | enough cells to score | inactive
Chrnb1 (cholinergic receptor nicotinic beta 1 subunit) | -0.01 | 1.52 | 1.33 | enough cells to score | inactive
Or51a24 (olfactory receptor family 51 subfamily A member 24) | 0.37 | 1.49 | 1.29 | enough cells to score | inactive
Irak2 (interleukin-1 receptor-associated kinase 2) | -0.75 | 1.6 | 1.26 | enough cells to score | inactive
E130114P18Rik (RIKEN cDNA E130114P18 gene) | 1.58 | 1.68 | 1.56 | enough cells to score | inactive
4932415M13Rik (RIKEN cDNA 4932415M13 gene) | – | 1.25 | 1.66 | fewer than 50 cells per well; well left out of scoring | inactive
Ces2c (carboxylesterase 2C) | 0.46 | 1.59 | 1.94 | enough cells to score | inactive
Taar1 (trace amine-associated receptor 1) | – | 1.57 | 1.81 | fewer than 50 cells per well; well left out of scoring | inactive
1700001O22Rik (RIKEN cDNA 1700001O22 gene) | 0.96 | 1.49 | 1.58 | enough cells to score | inactive
1700092C17Rik (RIKEN cDNA 1700092C17 gene) | 0.79 | 1.38 | 1.52 | enough cells to score | inactive
Ascl2 (achaete-scute family bHLH transcription factor 2) | – | 1.2 | 1.31 | fewer than 50 cells per well; well left out of scoring | inactive
Stam | 0.78 | 1.66 | 1.67 | enough cells to score | inactive
Sorl1 (sortilin-related receptor, LDLR class A repeats-containing) | -1.1 | 1.39 | 1.39 | enough cells to score | inactive
Adrb2 (adrenergic receptor, beta 2) | -0.18 | 1.59 | 1.41 | enough cells to score | inactive
Adrb2 (adrenergic receptor, beta 2) | -0.03 | 1.51 | 1.57 | enough cells to score | inactive
Brat1 (BRCA1-associated ATM activator 1) | 0.65 | 1.44 | 1.64 | enough cells to score | inactive
Ppif (peptidylprolyl isomerase F (cyclophilin F)) | -0.58 | 1.24 | 1.21 | enough cells to score | inactive
Use1 (unconventional SNARE in the ER 1 homolog (S. cerevisiae)) | – | 1.29 | 1.38 | fewer than 50 cells per well; well left out of scoring | inactive
Nudcd3 (NudC domain containing 3) | 0.36 | 1.67 | 1.86 | enough cells to score | inactive
